Patent publication US20240368549A1, “ENHANCEMENT OF HEMATOPOIETIC STEM CELL AND HEMATOPOIETIC PROGENITOR CELL EXPANSION WITH AGENTS THAT ACTIVATE TAM RECEPTORS” (CANADIAN BLOOD SERVICES, priority 2021, published 2024)
Entries after “also recorded” stand apart in the source; their conditions may differ.

System: CD34+CD45RA− HSPCs
Assay: 5-methylcytosine (5MC) level by intracellular flow cytometry
Type: cell-based, human

Row | Structure (SMILES) | methylation level of cytosine (5MC) in the DNA of cultured HSPC (14 days culture, compared to STFL control, X2B or C6, hydrate) | effect of TET inhibition on methylation in AA2P and X2A cultures (30 μM, added at day 10)
1 | O.O=C1O[C@H]([C@@H](O)CO)C(O)=C1OP(=O)([O-])[O-].[Mg+2] [AA2P, L-ascorbic acid 2-phosphate magnesium salt hydrate] | promoted DNA demethylation; also recorded: significantly different; also recorded: hypomethylates | 
2 | Nc1nc(=O)n(-c2cccc(-c3ccccc3)c2)cc1Cl [Bobcat339] |  | increased the methylation
